In patent US6979673:
These are yes or no findings as the source states them, for the method shown. In cells and extracts the contact can be indirect. Some binding calls cover weakened binding; strength is not graded here.

Protein sequences, listed by entry. Tags and fused reporters are not part of them. Lines headed by an entry give the natural chain unless they say otherwise; changes in a name come on top. Residues count along the entry.
UniProt P01236, residues 29-227: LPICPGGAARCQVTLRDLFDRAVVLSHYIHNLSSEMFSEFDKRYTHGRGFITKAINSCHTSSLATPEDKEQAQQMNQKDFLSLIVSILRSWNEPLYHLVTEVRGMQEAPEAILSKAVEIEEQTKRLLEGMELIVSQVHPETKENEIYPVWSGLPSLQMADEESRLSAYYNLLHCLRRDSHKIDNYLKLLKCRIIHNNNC
UniProt P23284: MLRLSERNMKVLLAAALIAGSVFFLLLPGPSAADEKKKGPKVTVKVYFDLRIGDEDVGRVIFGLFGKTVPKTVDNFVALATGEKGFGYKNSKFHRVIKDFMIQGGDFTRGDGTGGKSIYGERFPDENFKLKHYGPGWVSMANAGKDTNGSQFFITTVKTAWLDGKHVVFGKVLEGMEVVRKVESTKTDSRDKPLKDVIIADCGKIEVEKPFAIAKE

What was measured:
[1] = biological target: PRL (human prolactin, untagged or form not specified: serum PRL; PRL added to cell cultures) (human) (UniProt P01236); assay: pull-down of serum PRL on sepharose-conjugated CypB
[2] = biological target: PRL (human prolactin, untagged or form not specified: serum PRL; PRL added to cell cultures) (human) (UniProt P01236); assay: co-immunoprecipitation of nuclear complexes, T47D cells
[3] = biological target: PRL (human prolactin, untagged or form not specified: serum PRL; PRL added to cell cultures) (human) (UniProt P01236); assay: co-immunoprecipitation from human serum

| Substance | binding [1] | binding [2] | binding [3] |
| --- | --- | --- | --- |
| His-tagged CypB (cyclophilin B, recombinant, V5/His-tagged, from Drosophila S2 cells) (from UniProt P23284 34-216) (enzyme) | binds | binds | – |
| CypB from human serum (endogenous) (from UniProt P23284 34-216) (enzyme) | – | – | binds |
